Test results as given in patent publication US20110229459A1.
These are yes or no findings as the source states them, for the method shown. Some entries that bind do so weakly or less than the wild type.

T1: rhNR10 (human) (UniProt Q8NI17)
T1 sequence: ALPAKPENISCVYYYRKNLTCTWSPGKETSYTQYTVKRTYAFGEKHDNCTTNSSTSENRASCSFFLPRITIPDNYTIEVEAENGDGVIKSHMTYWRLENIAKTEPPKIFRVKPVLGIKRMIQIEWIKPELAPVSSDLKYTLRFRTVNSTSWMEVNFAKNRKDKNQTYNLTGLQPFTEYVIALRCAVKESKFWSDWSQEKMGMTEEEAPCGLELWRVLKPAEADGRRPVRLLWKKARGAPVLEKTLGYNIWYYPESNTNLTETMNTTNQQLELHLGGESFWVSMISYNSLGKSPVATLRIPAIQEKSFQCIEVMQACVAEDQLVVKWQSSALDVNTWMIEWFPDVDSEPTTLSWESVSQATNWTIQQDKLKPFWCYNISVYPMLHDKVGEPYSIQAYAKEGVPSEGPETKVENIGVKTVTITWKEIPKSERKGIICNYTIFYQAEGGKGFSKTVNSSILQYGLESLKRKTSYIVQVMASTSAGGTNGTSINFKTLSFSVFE


target: cytoplasmic domain-lacking human NR10 on CHO cells (human) (UniProt Q8NI17); test: FMAT competition on hNR10-expressing CHO cells; competitor: FMAT Blue-NS22 at 8.8x10^-2 µg/ml

binding	Binder
binds	chimeric NS23 (γ1, κ) (antibody, V domains shown) VH: EVQLQQSGPELVKPGTSMKISCKASGYSFTGYIMNWVKQSHGKNLEWIGLINPYNGGAEYNQKFKDKATFTVDKSSSTAYMELLSLTSEDSAVYYCARDGYDDGPYTMDYWGQGTSVTVSS VL: DIQMTQSPASLSASVGETVTFTCRANENIYSYLAWYQQKQGKSPQLLVYNAKTLAEGVPSRFSGSGSGTQFSLKINSLQPEDFGSYYCQHHYGTPPTFGGGTKLEIK

target: cytoplasmic domain-lacking human NR10 on CHO cells (human) (UniProt Q8NI17); test: FMAT competition: FMAT Blue-NS22 on hNR10-expressing CHO cells, unlabeled antibody titrated

binding	Binder
binds	chimeric NS23 (γ1, κ) (antibody, V domains shown) VH: EVQLQQSGPELVKPGTSMKISCKASGYSFTGYIMNWVKQSHGKNLEWIGLINPYNGGAEYNQKFKDKATFTVDKSSSTAYMELLSLTSEDSAVYYCARDGYDDGPYTMDYWGQGTSVTVSS VL: DIQMTQSPASLSASVGETVTFTCRANENIYSYLAWYQQKQGKSPQLLVYNAKTLAEGVPSRFSGSGSGTQFSLKINSLQPEDFGSYYCQHHYGTPPTFGGGTKLEIK

target: T1, rhNR10 (human); test: SPR (Biacore T100): antibody captured on Protein A, rhNR10 as analyte

binding	Binder
binds	H0La326 (antibody, V domains shown) VH: QVQLVQSGAEVKKPGASVKVSCKASGYTFTGYIMNWVRQAPGQGLEWMGLINPYNGGTSYNQKFKGRVTITADESTSTAYMELSSLRSEDTAVYYCARDGYDDGPYTMDYWGQGTLVTVSS VL: DIQMTQSPSSLSASVGDRVTITCRTSENIYSFLAWYQQKPGKAPKLLIYNAKTLAKGVPSRFSGSGSGTDFTLTISSLQPEDFATYYCQHHYESPLFFGGGTKVEIKR
binds	Ha401La402 (H chain, Ha401-SKSC; L chain, La402) (antibody, V domains shown) VH: QVQLVQSGAEVKKPGASVKVSCKASGYTFTGYVINWVRQAPGQGLEWMGLINPYNGGTDYNQKFKGRVTITADESTSTAYMELSSLRSEDTAVYYCARDGYDDGPYTMDYWGQGTLVTVSS VL: DIQMTQSPSSLSASVGDRVTITCQTSENIYRFVAWYQQKPGKAPKLLIYNAKTLAKGVPSRFSGSGSGTDFTLTISSLQPEDFATYYCQHHYDSPLTFGGGTKVEIKR

The remaining lines, values behind:

Binder	binding
H0La130 (H chain, H0-SKSC; L chain, La130) (antibody, V domains shown) VH: QVQLVQSGAEVKKPGASVKVSCKASGYTFTGYIMNWVRQAPGQGLEWMGLINPYNGGTSYNQKFKGRVTITADESTSTAYMELSSLRSEDTAVYYCARDGYDDGPYTMDYWGQGTLVTVSS VL: DIQMTQSPSSLSASVGDRVTITCRTSENIYRFVAWYQQKPGKAPKLLIYNAKTLAKGVPSRFSGSGSGTDFTLTISSLQPEDFATYYCQHHYESPLTFGGGTKVEIKR	binds
H17L11 (H chain, H17-M58; L chain, L11) (antibody, V domains shown) VH: QVQLVQSGAEVKKPGASVKVSCKASGYTFTGYVLNWVRQAPGQGLEWMGLINPYNGGTDYNPQFQDRVTITADESTSTAYMELSSLRSEDTAVYYCARDGYDDGPYTMDYWGQGTLVTVSS VL: DIQMTQSPSSLSASVGDRVTITCQTSEDIYRFVAWYQQKPGKAPKLLIYNAQTEAQGVPSRFSGSGSGTDFTLTISSLQPEDFATYYCQHHYDSPLTFGGGTKVEIKR	binds
H19L12 (H chain, H19-M58; L chain, L12) (antibody, V domains shown) VH: QVQLVQSGAEVKKPGASVKVSCKASGYTFTGYAMNWVRQAPGQGLEWMGLINPYNGGTDYNPQFQDRVTITADESTSTAYMELSSLRSEDTAVYYCARDGYDDGPYTMDYWGQGTLVTVSS VL: DIQMTQSPSSLSASVGDRVTITCQTSEDIYSFVAWYQQKPGKAPKLLIYNAQTEAQGVPSRFSGSGSGTDFTLTISSLQPEDFATYYCQHHYDSPLTFGGGTKVEIKR	binds
H0La303 (H chain, H0-SKSC; L chain, La303) (antibody, V domains shown) VH: QVQLVQSGAEVKKPGASVKVSCKASGYTFTGYIMNWVRQAPGQGLEWMGLINPYNGGTSYNQKFKGRVTITADESTSTAYMELSSLRSEDTAVYYCARDGYDDGPYTMDYWGQGTLVTVSS VL: DIQMTQSPSSLSASVGDRVTITCRTSENIYSFLAWYQQKPGKAPKLLIYNAKTLAKGVPSRFSGSGSGTDFTLTISSLQPEDFATYYCQHHYDSPLTFGGGTKVEIKR	binds
H0La328 (H chain, H0-SKSC; L chain, La328) (antibody, V domains shown) VH: QVQLVQSGAEVKKPGASVKVSCKASGYTFTGYIMNWVRQAPGQGLEWMGLINPYNGGTSYNQKFKGRVTITADESTSTAYMELSSLRSEDTAVYYCARDGYDDGPYTMDYWGQGTLVTVSS VL: DIQMTQSPSSLSASVGDRVTITCRTSENIYSFLAWYQQKPGKAPKLLIYNAKTLAKGVPSRFSGSGSGTDFTLTISSLQPEDFATYYCQHHYEDPLTFGGGTKVEIKR	binds
